This passage reports binding results from article PMC7449970.

The chains behind the UniProt entries cited, without tags or fusion partners. Residues count along the entry.
UniProt P37173, residues 23-567: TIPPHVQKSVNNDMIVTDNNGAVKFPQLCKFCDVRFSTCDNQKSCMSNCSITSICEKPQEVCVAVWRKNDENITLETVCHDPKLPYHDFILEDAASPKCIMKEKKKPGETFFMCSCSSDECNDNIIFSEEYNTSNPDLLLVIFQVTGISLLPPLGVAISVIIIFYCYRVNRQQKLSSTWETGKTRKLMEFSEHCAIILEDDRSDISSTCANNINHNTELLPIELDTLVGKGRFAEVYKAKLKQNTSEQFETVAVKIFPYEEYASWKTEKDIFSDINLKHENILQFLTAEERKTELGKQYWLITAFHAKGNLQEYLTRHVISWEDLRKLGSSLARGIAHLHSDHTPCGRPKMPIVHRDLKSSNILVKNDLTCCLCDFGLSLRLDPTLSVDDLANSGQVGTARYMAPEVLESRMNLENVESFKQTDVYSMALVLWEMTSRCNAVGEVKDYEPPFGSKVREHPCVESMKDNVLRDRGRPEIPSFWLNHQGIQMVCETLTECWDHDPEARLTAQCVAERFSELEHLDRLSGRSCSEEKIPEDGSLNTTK
UniProt Q8NBS9, residues 33-432: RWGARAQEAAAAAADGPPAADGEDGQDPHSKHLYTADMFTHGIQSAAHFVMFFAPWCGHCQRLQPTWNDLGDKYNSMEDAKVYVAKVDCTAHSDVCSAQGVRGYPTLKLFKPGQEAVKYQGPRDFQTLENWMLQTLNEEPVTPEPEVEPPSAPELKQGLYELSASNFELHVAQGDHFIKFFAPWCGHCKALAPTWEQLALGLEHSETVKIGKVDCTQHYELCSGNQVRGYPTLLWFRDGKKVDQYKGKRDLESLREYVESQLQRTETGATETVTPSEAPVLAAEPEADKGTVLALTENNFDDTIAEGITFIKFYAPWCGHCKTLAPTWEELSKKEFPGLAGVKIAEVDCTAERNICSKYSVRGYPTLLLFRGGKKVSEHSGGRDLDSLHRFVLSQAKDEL

Results are given in words; binding and its absence hold for the method and conditions named. Binding seen in cells or lysates may run through a third protein. Some binding calls cover weakened binding; strength is not graded here. For part of these data: Tags and fused reporters may be left off the sequences shown.

The target in assay [1] is T1, human TGFBR1-Myc-Flag-tagged (human) (UniProt P36897).
T1 sequence: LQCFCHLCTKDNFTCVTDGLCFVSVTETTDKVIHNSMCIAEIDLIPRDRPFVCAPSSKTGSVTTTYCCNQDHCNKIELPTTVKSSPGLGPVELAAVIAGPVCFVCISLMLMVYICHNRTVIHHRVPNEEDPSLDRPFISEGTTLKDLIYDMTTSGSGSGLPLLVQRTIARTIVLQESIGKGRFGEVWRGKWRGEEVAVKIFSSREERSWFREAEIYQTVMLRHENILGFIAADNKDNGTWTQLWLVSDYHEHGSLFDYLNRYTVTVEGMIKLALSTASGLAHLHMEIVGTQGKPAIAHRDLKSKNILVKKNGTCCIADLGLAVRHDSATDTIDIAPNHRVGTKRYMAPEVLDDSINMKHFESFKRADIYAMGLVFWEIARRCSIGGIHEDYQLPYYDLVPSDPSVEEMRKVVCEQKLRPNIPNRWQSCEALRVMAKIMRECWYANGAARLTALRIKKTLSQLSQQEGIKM
The experiment in a line: co-IP; lysates of NIH-3T3 fibroblasts transfected with mRNAs for 4 h; IP with anti-Flag or mouse IgG isotype control on protein G magnetic beads, and IP of WT or mutant TXNDC5 (TXNDC5 or HA); immunoblot.

Assay [2] addresses TGFβ receptor 2 (TGFBR2), endogenous in human pulmonary fibroblasts (human (endogenous in HPF)) (UniProt P37173). In words: proximity ligation; Duolink in situ PLA on fixed, permeabilised HPF; rabbit anti-TXNDC5 with mouse anti-TGFBR1 or mouse anti-TGFBR2; slides without primary antibodies as negative control.
The target in assay [3] is T2, TGFβ receptor 1 (TGFBR1), endogenous in human pulmonary fibroblasts (human (endogenous in HPF)) (UniProt P36897).
T2 sequence: T1 sequence
Described as above.

On to “Human WT TXNDC5 (mRNA transfected into NIH-3T3 fibroblasts) (from UniProt Q8NBS9 33-432)”, for which the binding result in assay [1] is “binds”. “thioredoxin domain containing 5 (TXNDC5), endogenous in human pulmonary fibroblasts (from UniProt Q8NBS9 33-432)”: the binding result in assay [2] is “no binding”; in assay [3], “binds”.
